Measured values taken from the supplement of paper PMC12009310.
“And” between values parts separate entries of the source, which are not always exact repeats. Equal entries are not always repeated. Structures can show the parent of a compound that is named as a salt. ± gives the standard deviation of the averaged measurements. This is one part of the list. Baselines shift from plate to plate; read single values as rough.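 The cells are a mouse kidney inner medullary collecting duct line, silenced either for the ciliary gene Rpgrip1l or with a non-targeting control siRNA.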

Test system: mIMCD3
Experiment: robust z score of cilia incidence (% cells with single cilium) vs plate controls; higher = more ciliated cells
Conditions: 10 µM; 48 h; siRNA: siScr

SMILES | robust z score of cilia incidence
NCCCCCc1c[nH]cn1 [Impentamine dihydrobromide] | -3.34 ± 0.73
OC(CNCC(O)C1CCc2cc(F)ccc2O1)C1CCc2cc(F)ccc2O1 (configuration not stated) [Nebivolol hydrochloride] | -29.4 ± 21
OCC(CO)N[C@H]1C[C@](O)(CO)[C@@H](O)[C@H](O)[C@H]1O [Voglibose] | -0.629 ± 1.2
Cc1c(C(=O)NN2CCCCC2)nn(-c2ccc(Cl)cc2Cl)c1-c1ccc(I)cc1 | -4.41 ± 0.78
CC(C)NCC(O)COc1ccc(COCCOC(C)C)cc1 (racemic) [(±)-Bisoprolol hemifumarate] | -5.33 ± 7.3
CCCCCCCCc1ccc(-c2ccc(C(=O)O)cc2)cc1 | -16.2 ± 16
COc1ccc(C(=O)Nc2sc3c(c2C(N)=O)CCCC3)cc1OC | -3.78 ± 3
CN1CCN(C2=Nc3cc(Cl)ccc3Nc3ccccc32)CC1 [Clozapine] | -0.0703 ± 6.7
O=C(NCCCN1CCCCCC1)C(c1ccccc1)C1CCCCC1 (configuration not stated) | 1.65 ± 0.22
CC1=C(/C=C/C(C)=C/C=C/C(C)=C/C(=O)Nc2ccc(O)cc2)C(C)(C)CCC1 [Fenretinide] | -52.9 ± 9.7
CCC(C)(C)C(=O)O[C@H]1C[C@@H](C)C=C2C=C[C@H](C)[C@H](CC[C@@H]3C[C@@H](O)CC(=O)O3)[C@H]21 [Simvastatin] | -101 ± 53
CCCc1c(OCC(O)COc2ccc3c(=O)cc(C(=O)O)oc3c2CCC)ccc(C(C)=O)c1O (configuration not stated) | -0.52 ± 0.6
NC(N)=NC(N)=Nc1cccc(Cl)c1 [m-Chlorophenylbiguanide hydrochloride] | 0.651 ± 3
N[C@@H](Cn1ccc(=O)n(Cc2ccccc2C(=O)O)c1=O)C(=O)O | 1.18 and 1.51
Nc1ncn([C@H]2C[C@H](O)[C@@H](CO)O2)c(=O)n1 [Decitabine] | -39 ± 4
N[C@@H](CSS(=O)(=O)O)C(=O)O [S-Sulfo-L-cysteine sodium salt] | -1.43 ± 2
COC(=O)C1=C(C)NC(C)=C(C(=O)OCCCN2CCC(c3ccccc3)(c3ccccc3)CC2)[C@@H]1c1cccc([N+](=O)[O-])c1 [(R)-(-)-Niguldipine hydrochloride] | -20.7 ± 0.55
CC(C)Oc1cccc(-n2c(CCc3c[nH]c4ccc(Br)cc34)nc3ccccc3c2=O)c1 | -21.6 ± 6.1
O=C(NCCCN1CCC2(CC1)OCc1ccccc12)[C@H]1CCCN1Cc1ccccc1 | -2.7 ± 1.6
CC1=C(/C=C/C(=C/C=C/C(C)=C/C(=O)O)c2ccc(C)cc2)C(C)(C)CCC1 | -30.1 ± 5.4
COc1ccccc1OCCNCC(O)COc1cccc2[nH]c3ccccc3c12 (configuration not stated) [Carvedilol] | -22.5 ± 9.8
O=C(NCCO[N+](=O)[O-])c1cccnc1 [Nicorandil] | -0.345 ± 0.58
CCOC(=O)N1CCC(=C2c3ccc(Cl)cc3CCc3cccnc32)CC1 [Loratidine] | -29.7 ± 24

Test system: mIMCD3
Experiment: robust z score of cilia incidence (% cells with single cilium) vs plate controls; higher = more ciliated cells (rescue of cilia loss)
Conditions: 10 µM; 48 h; siRNA: siRpgrip1l

SMILES | robust z score of cilia incidence
Oc1cc2c(cc1O)CN(C(=S)NCCc1ccc(Cl)cc1)CCC2 [Capsazepine] | -48.3 ± 27
CNCCCCOc1ccccc1Cc1ccccc1 [Bifemelane hydrochloride] | -35 ± 1.4
COc1ccc(Br)cc1S(=O)(=O)NC(=O)/C=C/c1ccccc1Cc1ccc2ccccc2c1 | -28.5 ± 5
CC#CCOC(=O)C1=CCCN(C)C1 [Arecaidine but-2-ynyl ester tosylate] | -7.03 ± 6.8
O=C(O)Cc1nn(Cc2ccc(Br)cc2F)c(=O)c2ccccc12 [Statil] | -6.17 ± 3.4
CN1Cc2c(C(=O)OC(C)(C)C)ncn2-c2ccsc2C1=O | -21.5 ± 20
O=C1c2ccccc2CCC1CNCCc1ccc(O)cc1 (configuration not stated) [HEAT hydrochloride] | -17 ± 0.86
COc1ccc(-c2nc(C(=O)N3CCN(C)CC3)sc2-c2ccc(OC)cc2)cc1 | -503 ± 310
Cc1ccccc1C(=O)c1ccc(Nc2ccc(Br)cc2N)cc1Cl | -27 ± 2.4
Cc1ccc(NC2=CC(=O)c3sc(C)nc3C2=O)cc1 [Ryuvidine] | -55.9 ± 7.3
CCc1c2c(nc3ccc(OC(=O)N4CCC(N5CCCCC5)CC4)cc13)-c1cc3c(c(=O)n1C2)COC(=O)[C@]3(O)CC | -15 ± 2.6
CC(Cc1ccccc1)(NC(=O)CN)c1ccccc1 (configuration not stated) [Remacemide hydrochloride] | -137 ± 94
N=C(N)SCCc1ccc(OCc2ccc([N+](=O)[O-])cc2)cc1 [KB-R7943 mesylate] | -34.1 ± 10
Cc1ccc(NC(=O)C(C)C)cc1C1CCN(Cc2ccc(Oc3ccc(F)c(F)c3)cc2)CC1 | -25.2 ± 3.4
Cc1cccc(CCN2CCC(C(=O)c3ccc(NS(C)(=O)=O)cc3)CC2)n1 [E-4031 dihydrochloride] | -41.9 ± 25
NCCCCCc1c[nH]cn1 [Impentamine dihydrobromide] | -23.9 ± 18
OC(CNCC(O)C1CCc2cc(F)ccc2O1)C1CCc2cc(F)ccc2O1 (configuration not stated) [Nebivolol hydrochloride] | -30 ± 6.5
C[S+]([O-])c1ccc(-c2nc(-c3ccc(F)cc3)c(-c3ccncc3)[nH]2)cc1 (configuration not stated) | -22 and -9.8
OCC(CO)N[C@H]1C[C@](O)(CO)[C@@H](O)[C@H](O)[C@H]1O [Voglibose] | -7.42 ± 0.75
Cc1c(C(=O)NN2CCCCC2)nn(-c2ccc(Cl)cc2Cl)c1-c1ccc(I)cc1 | -9.55 ± 15

SMILES | robust z score of cilia incidence
CC(C)NCC(O)COc1ccc(COCCOC(C)C)cc1 (racemic) [(±)-Bisoprolol hemifumarate] | -8.12 ± 2.5
CCCCCCCCc1ccc(-c2ccc(C(=O)O)cc2)cc1 | -26 ± 16
COc1ccc(C(=O)Nc2sc3c(c2C(N)=O)CCCC3)cc1OC | -13.5 ± 4.9
CN1CCN(C2=Nc3cc(Cl)ccc3Nc3ccccc32)CC1 [Clozapine] | -11.6 ± 7.9
O=C(NCCCN1CCCCCC1)C(c1ccccc1)C1CCCCC1 (configuration not stated) | -11.3 ± 3.1
CC1=C(/C=C/C(C)=C/C=C/C(C)=C/C(=O)Nc2ccc(O)cc2)C(C)(C)CCC1 [Fenretinide] | -30.6 ± 11
CCC(C)(C)C(=O)O[C@H]1C[C@@H](C)C=C2C=C[C@H](C)[C@H](CC[C@@H]3C[C@@H](O)CC(=O)O3)[C@H]21 [Simvastatin] | -107 ± 94
CCCc1c(OCC(O)COc2ccc3c(=O)cc(C(=O)O)oc3c2CCC)ccc(C(C)=O)c1O (configuration not stated) | -7.69 ± 5.5
NC(N)=NC(N)=Nc1cccc(Cl)c1 [m-Chlorophenylbiguanide hydrochloride] | -10.4 ± 12
N[C@@H](Cn1ccc(=O)n(Cc2ccccc2C(=O)O)c1=O)C(=O)O | -11.7 and -11.4
Nc1ncn([C@H]2C[C@H](O)[C@@H](CO)O2)c(=O)n1 [Decitabine] | -36.3 ± 0.85
N[C@@H](CSS(=O)(=O)O)C(=O)O [S-Sulfo-L-cysteine sodium salt] | -4.84 ± 1.8
COC(=O)C1=C(C)NC(C)=C(C(=O)OCCCN2CCC(c3ccccc3)(c3ccccc3)CC2)[C@@H]1c1cccc([N+](=O)[O-])c1 [(R)-(-)-Niguldipine hydrochloride] | -37.5 ± 14
CC(C)Oc1cccc(-n2c(CCc3c[nH]c4ccc(Br)cc34)nc3ccccc3c2=O)c1 | -13.4 ± 1.5
O=C(NCCCN1CCC2(CC1)OCc1ccccc12)[C@H]1CCCN1Cc1ccccc1 | -17.7 ± 2.6
CC1=C(/C=C/C(=C/C=C/C(C)=C/C(=O)O)c2ccc(C)cc2)C(C)(C)CCC1 | -41.46 ± 0.26
COc1ccccc1OCCNCC(O)COc1cccc2[nH]c3ccccc3c12 (configuration not stated) [Carvedilol] | -22.5 ± 15
O=C(NCCO[N+](=O)[O-])c1cccnc1 [Nicorandil] | -10.6 ± 4.9
CCOC(=O)N1CCC(=C2c3ccc(Cl)cc3CCc3cccnc32)CC1 [Loratidine] | -44.9 ± 34
